Measured values reported in patent publication US20250297300A1, “DETECTION, STAGING, MONITORING AND TREATING A DISEASE OR A CONDITION” (SUNBIRD BIO, INC., priority 2021, published 2025).
Some of these results come from one statement about several compounds together. For at least one compound, name, drawing or mass did not settle the structure.

Tested on: proteases in plasma sensed by Probe #102 (cathepsin L)
Test: Inhibitor profiling of Probe #102 cleavage in NASH and healthy plasma
Format: biochemical, mice
Protocol: For this experiment, all plasma samples were prepared individually and diluted 1/10e in PBS with inhibitor added directly to the samples. Inhibitor was prepared at 15× concentration to final. Substrates were diluted in DI water at 18 uM, such that the final concentration on the plate would be 6 uM. All samples were prepared such that their last dilution on the plate would not affect the desired final concentration. 10 ul of each individual sample was pipetted into their corresponding wells, and the plate was then spun down in the centrifuge at 1500 RPM for 30 seconds to coat the bottom of each well with the sample. 5 ul of the 18 uM substrate solution was pipetted into each well being used on a 384 well plate, and then the plate was spun down in the centrifuge at 1500 rpm for 30 seconds. The plate was placed immediately in the plate reader at 37° C. for a 30-minute-long fluorescence kinetic read at 485/535 extended gain.
To assess the proteolytic cleavage pattern of Probe #102, samples were tested using a pool of broad inhibitors for serine, cysteine, threonine, MMP and aspartic protease family members (broad inhibitor) to assess general protease activity, AEBSF for serine proteases, E64 for cysteine proteases, CTSi for broad cathepsin inhibition of cathepsins L,S,K and B, or specific inhibitors for cathepsin K (L00625), for cathepsin L (SID) or cathepsin B (CA074).

SMILES: CC(C)C[C@H](NC(=O)[C@H]1O[C@@H]1C(=O)O)C(=O)NCCCCN=C(N)N [Probe E64, E64]
- decrease in the RFU signal contrast between NASH and healthy samples: greater than 6 fold
